Measurements taken from PubChem BioAssay AID504444 (National Center for Advancing Translational Sciences (NCATS), 2011).
The campaign covered roughly 360,000 compounds. About 7,500 (2.1%) were called active. The shares of active, inactive and inconclusive entries below differ from those in the screen. The call rests on the fitted dose curve; in most records, active means well fitted inhibition curve with a large enough effect; inconclusive means small, poorly fitted or top-dose-only effect, or effect the other way; inactive means flat fitted curve, though single readings scatter. Where the call is inconclusive, the potency comes from a doubtful curve fit.

test: Nrf2 qHTS screen for inhibitors; conditions: A549 ARE-Fluc reporter, luciferase luminescence, 18-24 h; activity change, negative = inhibition: at 46 µM (top of the series); further: nearly all actives have a fitted effect of over 60% in size
Outline: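 Two sequential reads on A549 ARE_Fluc cells exposed to compound for 18-24 h: a CellTiter-Fluor fluorescence read for viability, then a luciferase luminescence read for Nrf2/ARE activity.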
On the % scale 0 is the no-effect control and ±100 the full control effect; potency means the concentration at half of the fitted maximal effect.

Question: Which “activity change, negative = inhibition” value does the source give for `CCn1c2ccccc2c2cc(CN3CCN(Cc4ccccc4C)CC3)ccc21` here?
Answer: inactive: 18.5%

Question: With `COc1ccc(C)cc1NC(=O)c1ccc2c(c1)nnn2C1CCCC1` as the molecule, how does the Potency read?
Answer: inconclusive: 3.66 µM [falling, partial curve, poor fit]

Question: Which Potency does the source give for `c1ccc(-c2ncc3c(ccc4ccccc43)n2)cc1` here?
Answer: inconclusive: 2.31 µM [activator, full curve]

Question: Which Potency does the source give for `C=CCn1c(Cc2cccs2)nnc1SCC(=O)Nc1cc(OC)cc(OC)c1` here?
Answer: inconclusive: 20.6 µM [falling, single point]

Question: For `O=C(Nc1ccc(-c2csc(Nc3cccc(C(F)(F)F)c3)n2)cc1)c1cc([N+](=O)[O-])cc(C(F)(F)F)c1`, which Potency is on record?
Answer: inconclusive: 29.1 µM [falling, partial curve, poor fit]

Question: With `COc1cccc(/C=N/c2nc3ccccc3[nH]2)c1O` as the molecule, how does the Potency read?
Answer: inconclusive: 0.13 µM [falling, full curve, poor fit]

Question: For `COc1ccccc1NC(=O)C1CCC(CNS(=O)(=O)c2ccc3c(c2)CC(C)N3C(C)=O)CC1` (stereo unspecified), which Potency is on record?
Answer: active: 18.4 µM

Question: Which Potency does the source give for `CCc1cc(=O)oc2cc(OC(C)C(=O)NCc3ccccn3)ccc12` (stereo unspecified) here?
Answer: inconclusive: 2.91 µM [falling, partial curve, poor fit]

Question: With `CCCCc1ccc(NC(=S)N2CCCC2)cc1` as the molecule, how does the “activity change, negative = inhibition” value read?
Answer: inactive: 2.75%

Question: With `CCc1ccc(NS(=O)(=O)c2ccc3oc(=O)ccc3c2)cc1` as the molecule, how does the Potency read?
Answer: inconclusive: 25.9 µM [falling, single point]

Question: With `O=C1c2ccccc2NC(c2ccccc2OCc2ccccc2)N1Cc1ccco1` (stereo unspecified) as the molecule, how does the Potency read?
Answer: inconclusive: 25.9 µM [falling, single point]

Question: With `Cc1ccc(C(=O)C[n+]2cc(-c3ccc(C)cc3)n3c2CCCCC3)cc1` as the molecule, how does the Potency read?
Answer: inconclusive: 10.3 µM [falling, partial curve, poor fit]

Question: Which Potency does the source give for `CN(C)CCn1c(COc2ccccc2)nc2ccccc21` here?
Answer: inconclusive: 18.4 µM [falling, partial curve, poor fit]

Question: Which “activity change, negative = inhibition” value does the source give for `Cc1ccc(Cl)c(OCCCCN(C)Cc2ccccc2)c1` here?
Answer: inactive: 5.12%

Question: For `Clc1nc(NCc2ccco2)c2[nH]cnc2n1`, which Potency is on record?
Answer: inconclusive: 13 µM [falling, partial curve, poor fit]

Question: Which “activity change, negative = inhibition” value does the source give for `CCOc1ccc(N/C(N)=N/c2nc(C)cc(C)n2)cc1` here?
Answer: inactive: -13.2%

Question: Which Potency does the source give for `O=C1NC(=S)SC1=Cc1ccccc1Cl` here?
Answer: inconclusive: 20.6 µM [falling, single point]

Question: With `CCC(=O)N(CCC(Cc1ccccc1)c1ccc2c(c1)OCO2)Cc1ccccc1F` (stereo unspecified) as the molecule, how does the Potency read?
Answer: inconclusive: 18.4 µM [falling, single point]

Question: Which Potency does the source give for `CCC(Sc1nc2c(cnn2-c2ccccc2)c(=O)[nH]1)C(=O)OC` (stereo unspecified) here?
Answer: inconclusive: 0.0651 µM [falling, full curve, poor fit]

Question: For `CCN(Cc1ccccc1)C(=O)c1cccc(S(=O)(=O)N2CCN(c3ccc(F)cc3)CC2)c1`, which Potency is on record?
Answer: active: 14.6 µM

Question: With `COc1ccc2[nH]c3c(=O)n(Cc4ccc(C(=O)N5CCC(C(N)=O)CC5)cc4)c(=S)[nH]c3c2c1` as the molecule, how does the “activity change, negative = inhibition” value read?
Answer: inactive: -21.3%

Question: With `CCN1CCN(CCC(=O)Nc2ccc(Br)c(C)c2)CC1` as the molecule, how does the Potency read?
Answer: inconclusive: 29.1 µM [activator, single point]

Question: Which Potency does the source give for `O/N=C(/c1ccccc1)c1cc2cc(Br)cc(Br)c2o1` here?
Answer: inconclusive: 9.2 µM [falling, single point]

Question: With `COc1cccc2ccc(/C=C/c3ccc4c(c3)OCO4)nc12` as the molecule, how does the Potency read?
Answer: inconclusive: 1.64 µM [activator, partial curve, poor fit]

Question: With `Cc1ccc(-c2ccc(C3C4C=CCC(C)C4C(=O)N3Cc3ccccc3)c(F)c2)cc1` (stereo unspecified) as the molecule, how does the “activity change, negative = inhibition” value read?
Answer: inactive: -4.2%

Question: Which Potency does the source give for `COc1cccc(CNC(=S)Nc2cc(C)ccc2C)c1` here?
Answer: inconclusive: 29.1 µM [falling, partial curve, poor fit]

Question: With `CC(=O)N1c2ccc(S(=O)(=O)N3CCC(C(=O)Nc4cc(C)ccn4)CC3)cc2CC1C` (stereo unspecified) as the molecule, how does the Potency read?
Answer: inconclusive: 23.1 µM [falling, single point]

Question: With `COCCn1c(C)cc(C(=O)COc2cccnc2[N+](=O)[O-])c1C` as the molecule, how does the Potency read?
Answer: inconclusive: 4.61 µM [activator, single point]

Question: Which Potency does the source give for `Cc1ccc(/C=C/c2nc3ccccc3[nH]2)o1` here?
Answer: inconclusive: 2.31 µM [activator, full curve]

Question: With `COc1ccc(OC)c(NC(=O)CSc2nnc(C)n2Cc2ccccc2)c1` as the molecule, how does the Potency read?
Answer: inconclusive: 0.146 µM [falling, full curve]

Question: With `CCN(Cc1ccccc1)S(=O)(=O)c1ccc(C(=O)N2CCN(c3nc4ccccc4s3)CC2)cc1` as the molecule, how does the Potency read?
Answer: active: 1.84 µM

Question: For `CS(=O)(=O)N1CCc2cc(-c3csc(NCC4CCCO4)n3)ccc21` (stereo unspecified), which Potency is on record?
Answer: inconclusive: 0.092 µM [activator, full curve, poor fit]

Question: With `O=C(NCCS(=O)(=O)NCc1ccc(F)cc1)c1ccccc1` as the molecule, how does the “activity change, negative = inhibition” value read?
Answer: inactive: 3.15%

Question: With `COC(=O)CN1C(=O)CSc2ccc(S(=O)(=O)Nc3cccc(Cl)c3C)cc21` as the molecule, how does the Potency read?
Answer: inconclusive: 32.6 µM [falling, single point]

Question: For `Cc1cc(C)c2sc(N(CCCN(C)C)C(=O)COc3ccc(Cl)cc3)nc2c1`, which Potency is on record?
Answer: inconclusive: 20.6 µM [falling, single point]

Question: For `Cn1c(=O)c2c(ncn2Cc2ccc(Cl)c(Cl)c2)n(C)c1=O`, which Potency is on record?
Answer: inconclusive: 8.2 µM [falling, partial curve, poor fit]

Question: With `CCCCC(=NCCc1c(C)[nH]c2ccccc12)C1=C(O)CC(c2ccccc2)CC1=O` (stereo unspecified) as the molecule, how does the Potency read?
Answer: inconclusive: 20.6 µM [falling, partial curve]

Question: Which Potency does the source give for `C[C@H](CO)N1C[C@H](C)[C@@H](CN(C)Cc2ccc(-c3ccccc3)cc2)Oc2c(NS(=O)(=O)c3ccc(F)cc3)cccc2C1=O` here?
Answer: inconclusive: 16.4 µM [activator, single point]

Question: Which Potency does the source give for `Cc1cc(=O)n(CC(=O)N2CCN(c3ccc(F)cc3)CC2)c2c1c(C)nn2C` here?
Answer: inconclusive: 14.6 µM [falling, partial curve, poor fit]

Question: For `Cc1ccccc1Oc1cc(NC(=O)CCCn2nc(C)c([N+](=O)[O-])c2C)cc([N+](=O)[O-])c1`, which Potency is on record?
Answer: inconclusive: 20.6 µM [falling, partial curve, poor fit]

Question: With `Cc1cs/c(=N/C(=S)Nc2ccccc2)n1C` as the molecule, how does the Potency read?
Answer: inconclusive: 0.58 µM [activator, partial curve, poor fit]
